Assay results: the supplement of paper PMC12823440, “Inhibitors supercharge kinase turnover through native proteolytic circuits” (Nature, 2025)
Counter-ions that a name gives are not always drawn. The list shows a part of the results. Hit calls seldom repeat between salt and free forms of one compound.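 In K562 cells expressing nanoluciferase-fused kinases, luminescence was recorded at 4 h intervals between 2 and 18 h, normalized as percent of control with DMSO at 100% and a positive control at 0%. A significant (2 sigma) signal drop marks a time point as decreased. The authors' rule for a hit is not shown and takes in more than the number of time points.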

Protein sequences, listed by entry. Tags and fused reporters are not part of them.
UniProt Q15418, whole entry: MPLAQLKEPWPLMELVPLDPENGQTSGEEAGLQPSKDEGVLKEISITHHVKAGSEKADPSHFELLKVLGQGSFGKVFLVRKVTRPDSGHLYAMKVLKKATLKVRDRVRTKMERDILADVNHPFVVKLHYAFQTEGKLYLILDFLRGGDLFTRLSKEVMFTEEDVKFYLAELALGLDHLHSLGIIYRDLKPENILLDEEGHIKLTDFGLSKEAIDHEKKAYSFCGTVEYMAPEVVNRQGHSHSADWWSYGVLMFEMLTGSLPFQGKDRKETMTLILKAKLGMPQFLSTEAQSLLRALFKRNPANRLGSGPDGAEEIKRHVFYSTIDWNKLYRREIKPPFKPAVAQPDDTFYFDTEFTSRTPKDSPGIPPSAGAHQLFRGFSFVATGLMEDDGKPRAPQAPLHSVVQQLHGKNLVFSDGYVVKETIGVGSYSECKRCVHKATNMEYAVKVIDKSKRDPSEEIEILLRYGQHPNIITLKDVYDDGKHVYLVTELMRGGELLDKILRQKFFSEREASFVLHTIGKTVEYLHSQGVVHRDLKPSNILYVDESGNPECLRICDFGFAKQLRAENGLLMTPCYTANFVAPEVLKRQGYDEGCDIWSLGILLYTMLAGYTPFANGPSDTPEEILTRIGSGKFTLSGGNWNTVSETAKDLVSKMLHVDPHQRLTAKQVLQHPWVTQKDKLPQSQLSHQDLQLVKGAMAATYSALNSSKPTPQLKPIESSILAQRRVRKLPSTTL

Target: RPS6KA1 (UniProt Q15418)
Assay: number of time points (of 5) at which kinase-Nluc abundance scored as decreased, DMSO-normalised (count); higher = more persistent destabilization
Details: K562; 2-18 h

Compound	number of time points
C[C@@H]1COCCN1c1nc(-c2cnc(N)cc2C(F)F)nc(N2[C@H](C)COC[C@@H]2C)n1 (2.5 µM)	0
O=C(O)c1cc(=O)c2c(OCC(O)COc3cccc4oc(C(=O)O)cc(=O)c34)cccc2o1 [Cromolyn (sodium)] (10 µM)	0
CCc1ccc(OCC(=O)Nc2ccc(F)c([N+](=O)[O-])c2)cc1 (10 µM)	0
CC(C)S(=O)(=O)c1ccc2nccc(Nc3ccc4scnc4c3)c2c1 (10 µM)	0
CN1CC[C@@H](c2c(O)cc(O)c3c(=O)cc(-c4ccc(C(F)(F)F)cc4Cl)oc23)[C@@H]1CO [Voruciclib (hydrochloride)] (10 µM)	0
CC(C)=CC(=O)O[C@H]1Cc2cc3ccc(=O)oc3cc2OC1(C)C [Decursin] (10 µM)	0
CC(C)C[C@@H](C(=O)Nc1ccn(C[C@@H](O)CO)n1)N1CC(Oc2ccccc2Cl)=CC1=O [Dorzagliatin] (10 µM)	0
CC(C)N1CCN(c2ccc(Nc3ncc4cc5n(c4n3)C3(CCCCC3)CNC5=O)nc2)CC1 [Lerociclib (dihydrochloride)] (2 µM)	0
CCCCCCCCCCCCCCCCOP(=O)([O-])OCC[N+](C)(C)C [Miltefosine] (10 µM)	0
COCCNc1cc(NC(=O)N2CCCc3cc(CN4CCN(C)CC4=O)c(C=O)nc32)ncc1C#N [Roblitinib] (10 µM)	0
Cc1ccc(NC(=O)c2ccc(CN(CCN(C)C)C(=O)c3cccnc3)cc2)cc1Nc1nccc(-c2cccnc2)n1 [PDGFRα kinase inhibitor 1] (10 µM)	0
c1ccc(-c2nc(=NCCN3CCOCC3)sn2-c2ccccc2)cc1 [VP3.15 (dihydrobromide)] (10 µM)	0
O=C1NC(=Nc2c(Cl)cccc2Cl)S/C1=C\c1ccc2nccnc2c1 (2.5 µM)	0
Cc1cc(-c2ccnc(Nc3cnn(C)c3)n2)ccc1CNC(=O)N1CC(OC(C)C)C1 (10 µM)	0
CN(C)S(=O)(=O)c1ccc2c(c1)/C(=C/c1cc3c([nH]1)CCCC3)C(=O)N2 (2.5 µM)	1
Cc1cnc(NC2CCOCC2)nc1-n1cnc(C(=O)N[C@H](CN)c2cc(F)cc(Cl)c2)c1 (10 µM)	0
N#CC(c1ccnc(OCc2ccc(CN3CCOCC3)cc2)n1)c1nc2ccccc2s1 (stereo not drawn) [Bentamapimod] (2.5 µM)	0
Cc1c(-c2ccc(C(N)=O)c3[nH]c4cc(C(C)(C)O)ccc4c23)cccc1-n1cnc2ccccc2c1=O (2.5 µM)	0
CN(C)c1nc2c(Br)c(Br)c(Br)c(Br)c2[nH]1 (10 µM)	0

Compound	number of time points
Nc1ncnc2c1c(-c1ccc(Oc3ccccc3)cc1)nn2C1CCN(CCOCCOCCOc2ccc3c(c2)CN(C2CCC(=O)NC2=O)C3=O)CC1 (stereo not drawn) (2.5 µM)	0
O=[N+]([O-])c1ccc(Nc2nc(N3CCOCC3)nc(N3CCOCC3)n2)cc1 (10 µM)	0
C[C@H](Nc1ncnc2[nH]cnc12)c1cc2ccc(F)cc2nc1-c1ccccn1 (10 µM)	0
CCc1cccc(CC)c1NC(=O)N1Cc2[nH]nc(NC(=O)c3ccc(N4CCN(C)CC4)cc3)c2C1 (2.5 µM)	0
CCc1cncnc1N1CCN(Cc2nc3ccc(C(F)(F)F)cc3[nH]2)CC1 (10 µM)	0
COc1cc(-c2cn[nH]c2)ccc1C(=O)Nc1ccc2c(c1)CCNCC2 (10 µM)	0
Cn1cc2cc(C(F)(F)c3nnc4ccc(-c5cnn(C6CC6)c5)nn34)c(F)cc2n1 [Bozitinib] (10 µM)	0
O=Nc1c2[nH]c3ccccc3nc-2c2ccccc12 [IQ-1S (free acid)] (2.5 µM)	0
CCN(CC)c1cc2oc(=O)c(-c3nc4ccccc4o3)cc2cc1C (2.5 µM)	0
COc1cc(N2CCOCC2)ccc1NC(=O)c1csc(-c2cccnc2)n1 [IRAK inhibitor 6] (10 µM)	0
CNc1nc(Nc2cn(C(C)(C)C#N)nc2C)ncc1C(F)(F)F (10 µM)	0
COc1nn(C)cc1Nc1nccc(-c2c[nH]c3c(NC(=O)[C@@H](C)N4CCN(C)CC4)cccc23)n1 (10 µM)	0
N#Cc1ccnc(Nc2cc(C3CCN(C4COC4)CC3)cc(N3CCC(F)(F)C3)n2)c1 (2.5 µM)	0
Cc1cccc2c3c(ccc12)C(=O)C1=C(OCC1C)C3=O (stereo not drawn) [Dihydroisotanshinone I] (2.5 µM)	0
CNc1nc(Nc2ccc(C(=O)N3CCOCC3)cc2OC)ncc1Cl (2.5 µM)	0
CCN(CC)c1ccc2cc(-c3nc4cc(C)ccc4o3)c(=O)oc2c1 (10 µM)	0
COc1ccccc1C(=O)/C=C/c1ccccc1C(=O)O (10 µM)	0
CC(=O)N1CCC(c2cc(-c3ccc(NC(=O)c4cccn(-c5ccc(F)cc5)c4=O)cc3F)c3c(N)ncnn23)CC1 (0.5 µM)	0
O[C@@H]1CO[C@H]2[C@@H]1OC[C@H]2Oc1nc2nc(-c3ccc(-c4ccccc4)cc3)c(Cl)cc2[nH]1 (10 µM)	0

An excerpt from above in order of length of the SMILES, falling:
Compound	number of time points
CC(C)C[C@@H](C(=O)Nc1ccn(C[C@@H](O)CO)n1)N1CC(Oc2ccccc2Cl)=CC1=O [Dorzagliatin] (10 µM)	0
COCCNc1cc(NC(=O)N2CCCc3cc(CN4CCN(C)CC4=O)c(C=O)nc32)ncc1C#N [Roblitinib] (10 µM)	0
N#CC(c1ccnc(OCc2ccc(CN3CCOCC3)cc2)n1)c1nc2ccccc2s1 (stereo not drawn) [Bentamapimod] (2.5 µM)	0
